Binding data for 1 molecule are collected here from PMC6956814, “Deubiquitinase USP28 inhibits ubiquitin ligase KLHL2-mediated uridine-cytidine kinase 1 degradation and confers sensitivity to 5'-azacytidine-resistant human leukemia cells” (Theranostics, 2020).

The test has as its target T1, Flag-tagged UCK1 (uridine-cytidine kinase 1) (human) (UniProt Q9HA47).
T1 sequence: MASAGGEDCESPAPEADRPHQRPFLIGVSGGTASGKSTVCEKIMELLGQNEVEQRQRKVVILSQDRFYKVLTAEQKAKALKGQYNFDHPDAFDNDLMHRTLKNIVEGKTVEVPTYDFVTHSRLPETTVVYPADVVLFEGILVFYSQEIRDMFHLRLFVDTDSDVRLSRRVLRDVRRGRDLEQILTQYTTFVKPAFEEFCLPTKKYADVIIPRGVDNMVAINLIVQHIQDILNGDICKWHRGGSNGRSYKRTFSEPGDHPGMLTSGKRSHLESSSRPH
The test is described as follows: affinity purification with mass spectrometry; Flag-tagged UCK1 expressed in HEK293T (methods: HEK293) cells, purified with an anti-Flag antibody, MS/MS.

These are yes or no findings as the source states them, for the method shown. Binding seen in cells or lysates may run through a third protein. These calls come from enrichment with a bait or labelling near it, and not all partners need be listed. Where a sequence is shown, tags or fusion partners need not be part of it.

B1: KLHL2 (Kelch Like Family Member 2), endogenous (protein, UniProt O95198 1-593)
chain: METPPLPPACTKQGHQKPLDSKDDNTEKHCPVTVNPWHMKKAFKVMNELRSQNLLCDVTIVAEDMEISAHRVVLAACSPYFHAMFTGEMSESRAKRVRIKEVDGWTLRMLIDYVYTAEIQVTEENVQVLLPAAGLLQLQDVKKTCCEFLESQLHPVNCLGIRAFADMHACTDLLNKANTYAEQHFADVVLSEEFLNLGIEQVCSLISSDKLTISSEEKVFEAVIAWVNHDKDVRQEFMARLMEHVRLPLLPREYLVQRVEEEALVKNSSACKDYLIEAMKYHLLPTEQRILMKSVRTRLRTPMNLPKLMVVVGGQAPKAIRSVECYDFKEERWHQVAELPSRRCRAGMVYMAGLVFAVGGFNGSLRVRTVDSYDPVKDQWTSVANMRDRRSTLGAAVLNGLLYAVGGFDGSTGLSSVEAYNIKSNEWFHVAPMNTRRSSVGVGVVGGLLYAVGGYDGASRQCLSTVECYNATTNEWTYIAEMSTRRSGAGVGVLNNLLYAVGGHDGPLVRKSVEVYDPTTNAWRQVADMNMCRRNAGVCAVNGLLYVVGGDDGSCNLASVEYYNPTTDKWTVVSSCMSTGRSYAGVTVIDKPL
Take B1: the binding result is on record as “binds”.
